Measurements reported in PubChem BioAssay AID1259308 (NCATS, 2017).
Screen: 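Knock-downs that increase output of a recombinant reporter protein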 (primary screen). Cells: human HEK293 embryonic kidney cells stably expressing firefly luciferase (HEK-CMV-Luc2-Hygro). Reagents: single siRNA against human genes, 0.8 pmol siRNA per well. Timing: 72 h. Measured: 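Luciferase light (ONE-Glo) measured on one replicate plate set and viability (CellTiter-Glo) on the other, scaled to a negative control siRNA, with robust z-scores and luciferase per cell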. Direction: total luciferase, z-score and total luciferase, % of control: higher = more reporter protein produced; luciferase per cell, z-score: higher = more reporter output per viable cell. Active means: 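Active when the median/MAD z-score for overall luciferase is greater than 3; a gene was taken forward for validation with new siRNAs if at least two of its three siRNAs passed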. Calls: active = raised luciferase; inactive = no rise.
The whole screen tested about 59,000 reagents; below is a random part of them. About 1,510 of all reagents (2.6%) count as active. 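Calls use total luciferase alone and ignore viability, so some active siRNAs may act by altering cell number.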 The numbers tell different reagents against one gene apart. Not all columns of the deposit are shown.

gene knocked down,siRNA no.,"total luciferase, z-score","total luciferase, % of control","luciferase per cell, z-score",Call
HSPB2,1,-0.841,65.2,-1.15,inactive
HSPB2,2,-0.139,79.1,0.401,inactive
HSPB2,3,-0.422,73.5,-0.572,inactive
FAM240C,1,0.454,90.9,-0.337,inactive
FAM240C,2,0.625,94.3,0.114,inactive
FAM240C,3,-0.0536,80.8,-0.986,inactive
TPRX1,1,0.616,94.1,0.455,inactive
TPRX1,2,0.587,93.6,1.33,inactive
TPRX1,3,-2.17,38.7,-1.69,inactive
PEX16,1,0.105,84,0.179,inactive
PEX16,2,-0.216,77.6,-0.519,inactive
PEX16,3,-0.283,76.3,-0.0216,inactive
ACVR2A,1,-0.693,68.1,-0.78,inactive
ACVR2A,2,-1,62,-1.22,inactive
ACVR2A,3,-2.27,36.8,-2.52,inactive
BCAT2,1,0.0587,83.1,-0.258,inactive
BCAT2,2,-0.798,66,-0.916,inactive
BCAT2,3,1.39,109,0.362,inactive
KIAA1210,1,-0.467,72.6,-0.954,inactive
KIAA1210,2,-1.1,60.1,-0.554,inactive
KIAA1210,3,-0.955,62.9,-0.133,inactive
KMT2B,1,-0.223,77.4,-0.0466,inactive
KMT2B,2,-0.0329,81.2,-0.0623,inactive
KMT2B,3,0.792,97.6,1.31,inactive
AGAP2,1,-0.245,77,-0.242,inactive
AGAP2,2,0.236,86.6,-0.606,inactive
AGAP2,3,1.84,118,1.73,inactive
TBPL2,1,0.752,96.9,1.26,inactive
TBPL2,2,0.162,85.1,0.306,inactive
TBPL2,3,0.304,87.9,0.238,inactive
TOR1AIP2,1,2.34,128,2.58,inactive
TOR1AIP2,2,1.61,114,1.8,inactive
TOR1AIP2,3,-0.686,68.2,-0.27,inactive
TOR1AIP2,4,0.624,94.3,0.486,inactive
TOR1AIP2,5,1.26,107,1.47,inactive
TOR1AIP2,6,-0.407,73.8,-0.55,inactive
SERPINF1,1,-0.551,70.9,-0.371,inactive
SERPINF1,2,0.651,94.8,0.366,inactive
SERPINF1,3,-0.467,72.6,-0.783,inactive
PWWP2A,1,0.717,96.1,0.301,inactive
PWWP2A,2,0.44,90.6,0.724,inactive
PWWP2A,3,-1.16,58.8,-1.67,inactive
CD70,1,0.411,90.1,1.25,inactive
CD70,2,-1.47,52.7,-1.19,inactive
CD70,3,1.29,107,0.665,inactive
WNT8A,1,-0.112,79.7,0.0457,inactive
WNT8A,2,1.01,102,1.53,inactive
WNT8A,3,-2.17,38.6,-1.08,inactive
RABL2B,1,-0.173,78.4,-0.763,inactive
RABL2B,2,-0.192,78.1,0.22,inactive
RABL2B,3,0.0903,83.7,-0.0301,inactive
GALNT18,1,-0.8,66,-1.1,inactive
GALNT18,2,-0.625,69.5,-1.34,inactive
GALNT18,3,0.0707,83.3,0.824,inactive
OR5H2,1,-0.828,65.4,-0.872,inactive
OR5H2,2,-0.903,63.9,-0.541,inactive
OR5H2,3,-0.912,63.7,-1.46,inactive
ZNF112,1,1.19,106,1.07,inactive
ZNF112,2,-0.949,63,-1.11,inactive
ZNF112,3,-0.316,75.6,-0.818,inactive
FZD10,1,0.0921,83.7,0.348,inactive
FZD10,2,-0.0372,81.1,-0.303,inactive
FZD10,3,-2.81,26,-2.17,inactive
NUDT7,1,-0.318,75.6,-0.408,inactive
NUDT7,2,0.0962,83.8,0.21,inactive
NUDT7,3,-0.914,63.7,-0.749,inactive
FASLG,1,-0.823,65.5,-0.737,inactive
FASLG,2,1.36,109,1.64,inactive
FASLG,3,-0.317,75.6,-0.566,inactive
BCL2A1,1,0.378,89.4,-0.38,inactive
BCL2A1,2,0.515,92.1,0.677,inactive
BCL2A1,3,0.761,97,1.16,inactive
HBA1,1,-0.975,62.5,-0.432,inactive
HBA1,2,-0.0984,79.9,-0.119,inactive
HBA1,3,-2.04,41.3,-2.3,inactive

Part of the list above, showing only “luciferase per cell, z-score”:
OR5H2 #3: -1.46
ZNF112 #1: 1.07
ZNF112 #2: -1.11
ZNF112 #3: -0.818
